Library screen at single concentrations

Chains of the proteins cited; added tags and fusions are not shown. Residues count along the entry.
UniProt A4I591, 1-473: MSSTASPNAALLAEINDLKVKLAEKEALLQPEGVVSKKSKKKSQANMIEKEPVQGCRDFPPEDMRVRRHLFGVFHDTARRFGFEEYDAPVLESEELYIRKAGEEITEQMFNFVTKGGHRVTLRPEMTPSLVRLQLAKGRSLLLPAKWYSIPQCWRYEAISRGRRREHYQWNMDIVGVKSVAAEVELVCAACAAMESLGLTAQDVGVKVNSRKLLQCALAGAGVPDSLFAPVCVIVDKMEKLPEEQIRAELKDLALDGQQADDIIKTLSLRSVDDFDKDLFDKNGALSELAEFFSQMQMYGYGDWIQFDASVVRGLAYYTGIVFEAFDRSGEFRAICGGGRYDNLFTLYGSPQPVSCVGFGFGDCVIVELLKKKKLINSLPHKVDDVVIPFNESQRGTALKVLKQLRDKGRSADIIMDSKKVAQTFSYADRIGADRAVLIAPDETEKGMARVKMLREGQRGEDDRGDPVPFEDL
UniProt I6X8D2, whole entry: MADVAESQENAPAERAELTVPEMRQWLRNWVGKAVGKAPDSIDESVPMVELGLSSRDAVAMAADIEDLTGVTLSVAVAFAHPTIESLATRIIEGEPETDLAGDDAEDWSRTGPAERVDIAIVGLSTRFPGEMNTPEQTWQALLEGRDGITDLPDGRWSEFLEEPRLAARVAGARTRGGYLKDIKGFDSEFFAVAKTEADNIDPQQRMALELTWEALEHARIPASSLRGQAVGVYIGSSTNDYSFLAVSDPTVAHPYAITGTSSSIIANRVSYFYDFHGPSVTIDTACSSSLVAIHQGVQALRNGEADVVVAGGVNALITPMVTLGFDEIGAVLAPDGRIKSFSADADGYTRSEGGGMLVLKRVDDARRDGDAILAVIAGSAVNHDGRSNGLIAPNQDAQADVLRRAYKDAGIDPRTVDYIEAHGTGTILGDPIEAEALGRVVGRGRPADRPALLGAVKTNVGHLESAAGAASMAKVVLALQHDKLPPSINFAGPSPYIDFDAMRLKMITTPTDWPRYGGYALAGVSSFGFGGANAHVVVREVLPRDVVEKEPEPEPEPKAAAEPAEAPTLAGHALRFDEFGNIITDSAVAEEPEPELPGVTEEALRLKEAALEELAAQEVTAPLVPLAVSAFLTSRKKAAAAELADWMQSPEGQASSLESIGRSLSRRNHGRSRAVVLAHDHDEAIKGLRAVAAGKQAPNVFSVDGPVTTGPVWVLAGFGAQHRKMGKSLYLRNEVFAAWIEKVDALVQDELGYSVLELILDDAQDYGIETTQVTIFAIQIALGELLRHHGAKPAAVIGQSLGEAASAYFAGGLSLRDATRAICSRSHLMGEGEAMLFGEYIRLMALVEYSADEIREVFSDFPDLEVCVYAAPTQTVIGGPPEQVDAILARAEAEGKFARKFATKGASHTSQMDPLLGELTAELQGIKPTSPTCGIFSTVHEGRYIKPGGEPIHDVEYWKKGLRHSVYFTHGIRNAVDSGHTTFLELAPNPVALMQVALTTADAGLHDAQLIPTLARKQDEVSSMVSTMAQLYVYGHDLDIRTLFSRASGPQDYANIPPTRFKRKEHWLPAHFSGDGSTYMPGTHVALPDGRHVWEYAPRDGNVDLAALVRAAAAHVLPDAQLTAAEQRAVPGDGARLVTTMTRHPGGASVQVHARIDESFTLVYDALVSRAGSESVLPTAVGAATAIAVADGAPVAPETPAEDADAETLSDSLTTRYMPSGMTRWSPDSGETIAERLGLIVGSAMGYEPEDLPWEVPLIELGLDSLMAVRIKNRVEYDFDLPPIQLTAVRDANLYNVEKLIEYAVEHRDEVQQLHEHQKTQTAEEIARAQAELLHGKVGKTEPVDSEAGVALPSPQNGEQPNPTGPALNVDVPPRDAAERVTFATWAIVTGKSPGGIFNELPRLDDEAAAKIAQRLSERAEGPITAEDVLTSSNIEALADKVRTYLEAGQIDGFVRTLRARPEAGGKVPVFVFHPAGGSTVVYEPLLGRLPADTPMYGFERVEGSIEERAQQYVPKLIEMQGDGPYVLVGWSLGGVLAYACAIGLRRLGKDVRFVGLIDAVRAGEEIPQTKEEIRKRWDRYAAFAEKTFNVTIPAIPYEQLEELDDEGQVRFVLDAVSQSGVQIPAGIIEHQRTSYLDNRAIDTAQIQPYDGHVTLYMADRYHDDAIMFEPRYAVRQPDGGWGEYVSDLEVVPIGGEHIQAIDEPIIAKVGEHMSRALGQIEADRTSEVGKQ

A: 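Enzyme assay of histidyl-tRNA synthetase; the read-out is not stated. Target: Histidine-tRNA ligase, Leishmania infantum (UniProt A4I591). Tested at 30 µM. Higher reads as stronger inhibition (inferred: compounds with an IC50 in retests scored well above the rest). The assay is labelled LdHisRS but filed under L. infantum. Size under these conditions: about 69,000 compounds, about 410 of them at 50% or above in at least one test.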
B: 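Polyketide synthase Pks13, Mycobacterium tuberculosis (UniProt I6X8D2). Enzyme assay of the thioesterase domain of polyketide synthase 13; the read-out is not stated. Compounds at 30 µM. The record gives no direction; the compounds picked for IC50 retests had high values, so higher reads as stronger inhibition. Size under these conditions: about 67,000 compounds, about 300 of them at 50% or above in at least one test.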
C: 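Cell assay of Leishmania donovani living inside macrophages; the read-out is not stated. Compounds at 30 µM. Higher reads as stronger inhibition (inferred: compounds with an IC50 in retests scored well above the rest). Of about 69,000 compounds tested this way, about 1,000 (1.5%) reached 50% or more in at least one test.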

Each number is a percent effect as filed.
The record does not define 0% and 100%; most values in the screen are far below 50% and negative numbers occur (in some assays of this library far below -100).
The compounds are a random part of those screened.
A dash means the value is not listed here; it may have been measured.

structure | A | B | C
O=C(NCCNc1cnccn1)N1CCCCCC1 | 7.018% | 3.226% | 17.17%
C=C(C)CN1CCC(c2n[nH]c(C3CC3)n2)CC1 | 0% | -10.98% | -20.28%
Cc1cnc(N2CC[C@@H]3CN(Cc4ccncc4)CCO[C@@H]3C2)nc1 | 7.895% | 22.33% | -
CSC1(CNC(=O)N(C)Cc2sccc2C)CCOCC1 | 11.11% | -4.5% | 2.115%
COC(=O)c1ccc(S(=O)(=O)NCc2cccnc2N(C)C)cc1 | -5.618% | -15.56% | 26.49%
CC(C)c1nc(C2CCCN2Cc2ccn(C)c(=O)c2)no1 (centres unmarked) | 2.128% | 0.3743% | 32.16%
O=C(O)C(F)(F)F.[H][C@@]12OCCN(C(=O)C3CCOCC3)[C@@]1([H])CC[C@H]2Oc1cccnc1 | - | - | 34.63%
Cc1nc(C)c(C(=O)N2CCc3ccc(F)cc3C2C)o1 (centres unmarked) | 11.43% | -29.85% | 23.5%
CCn1cnnc1C1CCN(C(=O)c2ccc3cc[nH]c3c2)CC1 | 11.43% | -9.996% | 3.876%
CCCc1n[nH]c(C2CN(CCNS(C)(=O)=O)CCO2)n1 (centres unmarked) | 9.565% | -35.47% | -6.457%
O=C(O)C(F)(F)F.[H][C@@]12CCN(Cc3ccoc3)C[C@]1([H])O[C@H](C(=O)NC1CC1)C2 | - | - | 29.69%
Cc1nc(Cn2c3c(ccc2=O)CC(N)CC3)cs1 (centres unmarked) | 9.91% | -28.7% | 24.76%
CN(C)C(=O)c1ccc2c(c1)N(C)C(CC(=O)NCCC(C)(C)C)CO2 (centres unmarked) | 14.42% | -16.18% | 34.21%
FC(F)(F)c1c[nH]c(C2CCN(c3ncccn3)CC2)n1 | 10% | -18.83% | -9.689%
Cc1cn2cc(C(=O)NC3CCCN(c4ncccn4)C3)ccc2n1 (centres unmarked) | 13.22% | 20.8% | 23.83%
COc1cc(CNc2ccc(C)c(Cl)c2)ccc1OCC(N)=O | -5.495% | 7.866% | -2.709%
COc1ccc(CNC(=O)N2CCOCC2C2CC2)c(C)c1 (centres unmarked) | -3.125% | -17.55% | -14.64%
Cc1nnc(SCC(=O)N2CCc3[nH]nc(C4CCC4)c3C2)o1 | 24.66% | 0.5333% | -81%
CCC(CC)CN1CCC2(CCCN(c3ncccn3)C2)C1 (centres unmarked) | 5.882% | - | 24.25%
NCCCC(=O)N1CCC2(CC1)CN(C(=O)c1ccc(Cl)cc1)CCO2 | 6.897% | 1.104% | 13.27%
CNC(=O)c1cc2c(nc1NCC(C)C)CCN(CC1CC1)CC2 | 3.947% | 51.57% | -
Cn1ccnc1CN1CCN(Cc2ccncc2)[C@@H]2CS(=O)(=O)C[C@@H]21 | 2.797% | -14.02% | -
COCCN1CCC(CN(CC2CCCO2)C(=O)Cn2cccn2)CC1 (centres unmarked) | 13.48% | 8.22% | 58.18%
CCS(=O)(=O)c1ncc(CN(C)Cc2ccccn2)n1CCOC | 15.24% | -6.313% | 26.08%
CN(C(=O)Cc1ccc(NC(=O)NC2CC2)cc1)c1ccccc1 | 18.87% | -9.399% | -31.59%
Cn1cc(CCNCc2cc(Br)c3c(c2)OCO3)cn1 | 20.18% | -16.34% | -26.26%
C/C=C(\C)CN1C[C@H](NC(=O)CN2CCCC2=O)[C@@H](c2ccc(C)o2)C1 | -56.52% | 17.08% | -7.85%
CC1CCN(c2ncc3c(n2)CN(C2CCS(=O)(=O)C2)C3=O)CC1 (centres unmarked) | 10.62% | -20.29% | -54.24%
COc1cc(OC)cc(N2CCC(NCc3occc3C)C2=O)c1 (centres unmarked) | 0% | -24.57% | 2.637%
Cc1cc(OCC(=O)NC(C)c2ccc(N3CCOCC3)cc2)no1 (centres unmarked) | 17.92% | -9.873% | 2.174%
CN(Cc1cc(Br)cn1C)C(=O)c1ccsc1 | 12.7% | -9.348% | 27.92%
c1cnnc(N[C@@H]2CC[C@@H]3CN(Cc4c[nH]c5ccccc45)C[C@@H]32)c1 | -4.027% | -19.14% | -
c1ccc(OCCNC2CCCN(Cc3noc(C4CC4)n3)C2)cc1 (centres unmarked) | 8.475% | 0.3063% | 6.187%
CC(=O)N1[C@H](Cn2cncn2)C[C@@H]2CN(c3ncc(F)cn3)CC[C@@H]21 | 30.56% | -28.72% | -
O=C(Nc1ccccc1OCCc1ccccn1)N1CC[C@@H](O)C1 | 10.84% | -2.755% | -41.47%
CCNc1ncc(C(=O)NC(c2ccccc2)c2ccco2)cn1 (centres unmarked) | 14.29% | -12.14% | 0.9794%
COc1ccc(C)cc1NC(=O)Nc1cnc(N2CCN(C)CC2)nc1 | 20.39% | - | 50.02%
Cn1cnnc1C1CCCN(C(=O)c2ccccn2)C1 (centres unmarked) | 13.27% | -29.43% | -7.941%
O=C(O)C(F)(F)F.O=C(O)C(F)(F)F.O=C(O)C(F)(F)F.c1ccc(CO[C@@H]2CO[C@@]3(CCN(Cc4ccccn4)C3)C2)nc1 | - | - | 25.4%
CNC(=O)[C@@H](c1ccccc1)N1CCC[C@H]1C(=O)NCc1cccnc1 | 5.556% | -0.9109% | -
Cc1ccc(N(CC(=O)NCc2nnc3n2CCC3)S(C)(=O)=O)cc1 | 15.25% | -21.77% | 12.02%
O=C(O)C(F)(F)F.O=C(O)C(F)(F)F.O=C(O)c1cc2c(nc1-c1ccoc1)CCN(Cc1ccco1)CC2 | - | - | 9.555%
Cn1cccc1C(=O)N1CCCCC12CC(=O)N(c1cccnc1)C2 (centres unmarked) | 19.44% | -9.946% | -
O=C(NCCc1cccs1)N1CCCC2(CCC(=O)N(C3CC3)C2)C1 (centres unmarked) | 10.96% | -8.818% | -15.42%
CCNC(=O)C1(Cc2cc(-c3ccccc3)no2)CCCN(C)C1 (centres unmarked) | 10% | 3.215% | -1.504%
Cc1nc2ccccc2nc1NCc1nnc2n1CCC2 | 24.24% | -10.01% | -6.515%
NC(=O)c1ccc(=O)n(Cc2cc(Br)ccc2Cl)n1 | 24.66% | -18.45% | 14.17%
O=C(CC1CC1)N1C[C@@H]2CN(c3ccccc3)C(=O)[C@@H]2C1 | 21.15% | -21.02% | -

5 of the entries, repeated:

structure	A	B	C
Cc1cc(OCC(=O)NC(C)c2ccc(N3CCOCC3)cc2)no1 (centres unmarked)	17.92%	-9.873%	2.174%
O=C(O)C(F)(F)F.O=C(O)C(F)(F)F.O=C(O)c1cc2c(nc1-c1ccoc1)CCN(Cc1ccco1)CC2	-	-	9.555%
CCn1cnnc1C1CCN(C(=O)c2ccc3cc[nH]c3c2)CC1	11.43%	-9.996%	3.876%
Cc1nc(C)c(C(=O)N2CCc3ccc(F)cc3C2C)o1 (centres unmarked)	11.43%	-29.85%	23.5%
CC(C)c1nc(C2CCCN2Cc2ccn(C)c(=O)c2)no1 (centres unmarked)	2.128%	0.3743%	32.16%

From ChEMBL document CHEMBL3988442, “University of Dundee, Small-Polar-MMV Screening Library” (2021).